Data taken from ChEMBL document CHEMBL3988442, “University of Dundee, Small-Polar-MMV Screening Library” (2021).

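Assay of Toxoplasma gondii numbers, read through their beta-galactosidase reporter with a colour substrate. Compounds at 50 µM. The record gives no direction; the compounds picked for IC50 retests had high values, so higher reads as fewer parasites. About 18,000 compounds were tested under these conditions; 0.94% (about 170) showed 50% or more at least once.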

Values are the deposited “Percent Effect”, in %. The controls that fix the scale are not given in the record; negative values are as filed. The compounds are a random part of those screened.

CSCC(=O)N1C[C@@H](CN2CCCCCC2)[C@@H](CO)C1 gave -1.135%.
COCCNC(C)C(N)=O (stereo not shown) gave 2.836%.
COc1ccc2c(c1)OCC(C(=O)N(C)CCC#N)C2 (stereo not shown) gave -30.75%.
CC1(c2ccccc2)CN(C(=O)c2cc[nH]n2)CCO1 (stereo not shown) gave 6.467%.
CC(=O)N1CCN(c2ccccc2F)CC1 gave -10.16%.
CC(C)N1CCOC(Cn2cc(Br)cn2)C1 (stereo not shown) gave -0.541%.
CCC(CO)Nc1nccc(C(F)(F)F)n1 (stereo not shown) gave -2.391%.
CCC(O)CN1CCC(OC2CCOCC2)CC1 (stereo not shown) gave 12.04%.
COCc1ccccc1C(=O)N1CCCC(O)C1 (stereo not shown) gave 58.79%.
Cc1cncc(C(=O)OC(C)CCN2CCCC2=O)c1 (stereo not shown) gave -0.9879%.
CC[C@H]1COCCN1C(=O)c1ncc(F)cc1F gave -6.294%.
O=C(NCCO)c1ccc(-c2ccccc2)cc1 gave 10%.
Cc1ccccc1CC(=O)N(C)C gave -4.007%.
Cc1cc(C)c(NC(=O)CN2CCN(C)CC2)c(C)c1 gave -9.36%.
CC(C)n1nccc1NC(=O)N1CCCSCC1 gave -2.103%.
CCc1cc(C(=O)NCC2CCCNC2)cc(=O)[nH]1 (stereo not shown) gave -3.547%.
Cc1cc(Cl)ccc1NC(=O)CSc1n[nH]c(N)n1 gave -4.447%.
Cc1cc(CN)sc1C gave 12.43%.
COc1ccc(CC(=O)N2CCOC(C)C2)cc1 (stereo not shown) gave -1.569%.
NC(=O)CCc1ccc(Cl)s1 gave 45.63%.
CCOC(=O)CC1C(=O)NCCN1CCC#N (stereo not shown) gave -2.593%.
CC1CCN(C(CN)c2cccs2)CC1 (stereo not shown) gave -17.59%.
NCc1cccc(S(=O)(=O)NCc2cccc(F)c2)c1 gave -1.756%.
Cc1nnc(SCCCNC(=O)c2cc(Cl)c[nH]2)s1 gave -0.7389%.
NC(=O)Cc1cccc(O)c1 gave -13.66%.
COCC(CN)c1ccc(Cl)cc1 (stereo not shown) gave -7.736%.
Cn1nccc1CCC(=O)N[C@@H]1COCC[C@H]1O gave -6.837%.
CCCc1ccc(CN2CCCN(C(C)=O)CC2)o1 gave 3.188%.
CN(C)c1nc(Cl)c(CN)s1 gave 11.79%.
Nc1nnc(CCNC(=O)C2CCc3ccccc32)o1 (stereo not shown) gave -2.61%.
O=C(NCc1c[nH]nn1)C1(Cc2ccccc2)CCC1 gave -1.868%.
O=C(CSc1ncccn1)Nc1ccc2c(c1)OCO2 gave -17.21%.